# From the supplement of paper PMC8728848
# The list shows a part of the results.
# Key:
# Experiment in all cases: glycan array binding signal (z-score within array); higher = stronger binding
# Settings in all cases: glycan notation: IUPAC condensed, linker removed
# [1] = biological target: Gal(a1-3)[Gal(a1-4)]Gal(b1-4)GlcNAc
# Procedure, shortened: (§1)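 Columns mapping to the same glycan were averaged after glycan names were converted to IUPAC-condensed notation. The data come from 3228 arrays in the Consortium for Functional Glycomics database, limited to those with an available protein sequence. Binding is reported as a within-array Z-score averaged across arrays of one protein sequence and across linkers.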
# [2] = biological target: Gal(a1-4)Gal(b1-3)GlcNAc(b1-2)Man(a1-3)[Gal(a1-4)Gal(b1-3)GlcNAc(b1-2)Man(a1-6)]Man(b1-4)GlcNAc(b1-4)GlcNAc
# Procedure, shortened: as §1
# [3] = biological target: Gal(a1-4)Gal(b1-4)Glc
# Procedure, shortened: as §1
# [4] = biological target: Gal(a1-4)Gal(b1-4)GlcNAc
# Procedure, shortened: as §1
# [5] = biological target: Gal(a1-4)Gal(b1-4)GlcNAc(b1-2)Man(a1-3)[Gal(a1-4)Gal(b1-4)GlcNAc(b1-2)Man(a1-6)]Man(b1-4)GlcNAc(b1-4)GlcNAc
# Procedure, shortened: as §1
# [6] = biological target: Gal(a1-4)Gal(b1-4)GlcNAc(b1-3)Gal(b1-4)Glc
# Procedure, shortened: as §1
# [7] = biological target: Gal(a1-4)GlcNAc
# Procedure, shortened: as §1
# [8] = biological target: Gal(a1-6)Glc
# Procedure, shortened: as §1
# [9] = biological target: Gal(b1-2)Gal
# Procedure, shortened: as §1
# [10] = biological target: Gal(b1-3)Gal
# Procedure, shortened: as §1
# [11] = biological target: Gal(b1-3)Gal(b1-4)GlcNAc
# Procedure, shortened: as §1
# [12] = biological target: Gal(b1-3)GalNAc
# Procedure, shortened: as §1
# [13] = biological target: Gal(b1-3)GalNAc(a1-3)[Fuc(a1-2)]Gal(b1-4)Glc
# Procedure, shortened: as §1
# [14] = biological target: Gal(b1-3)GalNAc(a1-3)[Fuc(a1-2)]Gal(b1-4)GlcNAc
# Procedure, shortened: as §1
# [15] = biological target: Gal(b1-3)GalNAc(b1-3)Gal
# Procedure, shortened: as §1
# [16] = biological target: Gal(b1-3)GalNAc(b1-3)Gal(a1-4)Gal(b1-4)Glc
# Procedure, shortened: as §1
# [17] = biological target: Gal(b1-3)GalNAc(b1-4)Gal(b1-4)Glc
# Procedure, shortened: as §1
# [18] = biological target: Gal(b1-3)GalNAc(b1-4)[Neu5Ac(a2-3)]Gal(b1-4)Glc
# Procedure, shortened: as §1
# [19] = biological target: Gal(b1-3)GlcNAc
# Procedure, shortened: as §1
# [20] = biological target: Gal(b1-3)GlcNAc(a1-3)Gal(b1-4)GlcNAc
# Procedure, shortened: as §1
# [21] = biological target: Gal(b1-3)GlcNAc(a1-6)Gal(b1-4)GlcNAc
# Procedure, shortened: as §1
# [22] = biological target: Gal(b1-3)GlcNAc(b1-2)Man
# Procedure, shortened: as §1
# [23] = biological target: Gal(b1-3)GlcNAc(b1-2)Man(a1-3)[Gal(b1-3)GlcNAc(b1-2)Man(a1-6)]Man(b1-4)GlcNAc(b1-4)GlcNAc
# Procedure, shortened: as §1
# [24] = biological target: Gal(b1-3)GlcNAc(b1-2)Man(a1-3)[Gal(b1-3)GlcNAc(b1-2)Man(a1-6)]Man(b1-4)GlcNAc(b1-4)[Fuc(a1-6)]GlcNAc
# Procedure, shortened: as §1
# [25] = biological target: Gal(b1-3)GlcNAc(b1-2)Man(a1-3)[GlcNAc(b1-4)][Gal(b1-3)GlcNAc(b1-2)Man(a1-6)]Man(b1-4)GlcNAc(b1-4)GlcNAc
# Procedure, shortened: as §1
# [26] = biological target: Gal(b1-3)GlcNAc(b1-2)[Gal(b1-3)GlcNAc(b1-6)]Man(a1-6)[Gal(b1-3)GlcNAc(b1-2)Man(a1-3)]Man(b1-4)GlcNAc(b1-4)GlcNAc
# Procedure, shortened: as §1
# [27] = biological target: Gal(b1-3)GlcNAc(b1-3)Gal(b1-3)GlcNAc
# Procedure, shortened: as §1
# [28] = biological target: Gal(b1-3)GlcNAc(b1-3)Gal(b1-4)Glc
# Procedure, shortened: as §1
# [29] = biological target: Gal(b1-3)GlcNAc(b1-3)Gal(b1-4)GlcNAc
# Procedure, shortened: as §1
# [30] = biological target: Gal(b1-3)GlcNAc(b1-3)Gal(b1-4)GlcNAc(b1-2)Man(a1-3)[Gal(b1-3)GlcNAc(b1-3)Gal(b1-4)GlcNAc(b1-2)Man(a1-6)]Man(b1-4)GlcNAc(b1-4)GlcNAc
# Procedure, shortened: as §1
# [31] = biological target: Gal(b1-3)GlcNAc(b1-3)Gal(b1-4)GlcNAc(b1-2)[Gal(b1-3)GlcNAc(b1-3)Gal(b1-4)GlcNAc(b1-6)]Man(a1-6)[Gal(b1-3)GlcNAc(b1-3)Gal(b1-4)GlcNAc(b1-2)Man(a1-3)]Man(b1-4)GlcNAc(b1-4)[Fuc(a1-6)]GlcNAc
# Procedure, shortened: as §1
# [32] = biological target: Gal(b1-3)GlcNAc(b1-3)Gal(b1-4)GlcNAc(b1-3)Gal(b1-4)GlcNAc(b1-2)[Gal(b1-3)GlcNAc(b1-3)Gal(b1-4)GlcNAc(b1-3)Gal(b1-4)GlcNAc(b1-6)]Man(a1-6)[Gal(b1-3)GlcNAc(b1-3)Gal(b1-4)GlcNAc(b1-3)Gal(b1-4)GlcNAc(b1-2)Man(a1-3)]Man(b1-4)GlcNAc(b1-4)[Fuc(a1-6)]GlcNAc
# Procedure, shortened: as §1
# [33] = biological target: Gal(b1-3)GlcNAc(b1-3)Gal(b1-4)GlcNAc(b1-6)[Gal(b1-3)GlcNAc(b1-3)]Gal(b1-4)Glc
# Procedure, shortened: as §1
# [34] = biological target: Gal(b1-3)GlcNAc(b1-3)Gal(b1-4)[Fuc(a1-3)]GlcNAc
# Procedure, shortened: as §1
# [35] = biological target: Gal(b1-3)GlcNAc(b1-3)Gal(b1-4)[Fuc(a1-3)]GlcNAc(b1-6)[Gal(b1-3)GlcNAc(b1-3)]Gal(b1-4)Glc
# Procedure, shortened: as §1
# [36] = biological target: Gal(b1-3)GlcNAc(b1-3)GalNAc
# Procedure, shortened: as §1
# [37] = biological target: Gal(b1-3)GlcNAc(b1-6)Gal(b1-4)GlcNAc
# Procedure, shortened: as §1
# [38] = biological target: Gal(b1-3)GlcNAc(b1-6)GalNAc
# Procedure, shortened: as §1
binder,measurement,setting,value
GS7807Q-bfa-507-19-507 (Bacteroides fragilis) (protein) ASCNKFDDLNTNPDAATKVTAPMLATKLILNITQQGSAKNFVYHSMLSKQIAWSENASDEQYNLFGRTDFDGYTILTNCQKMVDAANEGDKDSYAALAKFMKAYKLFYKSLEVGDIPYSDALKGEEGVQKPKYDTQKEVMRQVLEDLEEAYTLFSSGSDFDGDPIFGGDTENWKKTVVAFELKVLTHLCKKDTDADLKVKERFARLVSSGSLMTSNADNFQLVYSNKAGQLYPFYYTQNKHSDYLMMSSVIIDNLKKFNDYRMFYYASPAKAQTDKGIKDSEWDAYLSIDPSDSYSNISVLYGKGEFCLANLRYTRVPEGEPLMRLSYAEQNFILAEGAVRGWISEDASTYYKKGIEASMNFIADNTPDKEEYTHGRTITQEYIQEYLAQPVIQLSGDKEKDLEMILLQRYLASFLQHPYDAYYDYRRTGYPVLPINPSTNLNTEKNKIPTRWMYPEAEFSYNPDNANEAVQRQYNGSDDVNKLMWILQ,glycan array binding signal (z-score),[1],0.361
same,glycan array binding signal (z-score),[2],1.5
same,glycan array binding signal (z-score),[3],-0.026
same,glycan array binding signal (z-score),[4],0.712
same,glycan array binding signal (z-score),[5],1.59
same,glycan array binding signal (z-score),[6],-0.723
same,glycan array binding signal (z-score),[7],-0.18
same,glycan array binding signal (z-score),[8],-1
same,glycan array binding signal (z-score),[9],0.131
same,glycan array binding signal (z-score),[10],-0.945
same,glycan array binding signal (z-score),[11],0.505
same,glycan array binding signal (z-score),[12],-0.161
same,glycan array binding signal (z-score),[13],-0.121
same,glycan array binding signal (z-score),[14],-0.635
same,glycan array binding signal (z-score),[15],0.094
same,glycan array binding signal (z-score),[16],0.089
same,glycan array binding signal (z-score),[17],0.978
same,glycan array binding signal (z-score),[18],0.654
same,glycan array binding signal (z-score),[19],-0.667
same,glycan array binding signal (z-score),[20],-0.274
same,glycan array binding signal (z-score),[21],-0.771
same,glycan array binding signal (z-score),[22],-0.443
same,glycan array binding signal (z-score),[23],2.5
same,glycan array binding signal (z-score),[24],0.581
same,glycan array binding signal (z-score),[25],2.19
same,glycan array binding signal (z-score),[26],0.94
same,glycan array binding signal (z-score),[27],-0.954
same,glycan array binding signal (z-score),[28],-0.727
same,glycan array binding signal (z-score),[29],-0.608
same,glycan array binding signal (z-score),[30],-0.098
same,glycan array binding signal (z-score),[31],0.609
same,glycan array binding signal (z-score),[32],3.08
same,glycan array binding signal (z-score),[33],3.63
same,glycan array binding signal (z-score),[34],0.816
same,glycan array binding signal (z-score),[35],-0.763
same,glycan array binding signal (z-score),[36],-0.513
same,glycan array binding signal (z-score),[37],0.525
same,glycan array binding signal (z-score),[38],1.59

# 2 entries from above, bar-delimited:
binder | measurement | setting | value
GS7807Q-bfa-507-19-507 (Bacteroides fragilis) (protein) ASCNKFDDLNTNPDAATKVTAPMLATKLILNITQQGSAKNFVYHSMLSKQIAWSENASDEQYNLFGRTDFDGYTILTNCQKMVDAANEGDKDSYAALAKFMKAYKLFYKSLEVGDIPYSDALKGEEGVQKPKYDTQKEVMRQVLEDLEEAYTLFSSGSDFDGDPIFGGDTENWKKTVVAFELKVLTHLCKKDTDADLKVKERFARLVSSGSLMTSNADNFQLVYSNKAGQLYPFYYTQNKHSDYLMMSSVIIDNLKKFNDYRMFYYASPAKAQTDKGIKDSEWDAYLSIDPSDSYSNISVLYGKGEFCLANLRYTRVPEGEPLMRLSYAEQNFILAEGAVRGWISEDASTYYKKGIEASMNFIADNTPDKEEYTHGRTITQEYIQEYLAQPVIQLSGDKEKDLEMILLQRYLASFLQHPYDAYYDYRRTGYPVLPINPSTNLNTEKNKIPTRWMYPEAEFSYNPDNANEAVQRQYNGSDDVNKLMWILQ | glycan array binding signal (z-score) | [28] | -0.727
same | glycan array binding signal (z-score) | [29] | -0.608
